Reference: patent US20190225705A1
These are yes or no findings as the source states them, for the method shown. Some results given as binding are weak or reduced against the parent protein; the word gives no strength.

The chains behind the UniProt entries cited, without tags or fusion partners. Where a name states a change or a piece, a line headed by the entry shows the natural chain unless it says otherwise.
UniProt P03951: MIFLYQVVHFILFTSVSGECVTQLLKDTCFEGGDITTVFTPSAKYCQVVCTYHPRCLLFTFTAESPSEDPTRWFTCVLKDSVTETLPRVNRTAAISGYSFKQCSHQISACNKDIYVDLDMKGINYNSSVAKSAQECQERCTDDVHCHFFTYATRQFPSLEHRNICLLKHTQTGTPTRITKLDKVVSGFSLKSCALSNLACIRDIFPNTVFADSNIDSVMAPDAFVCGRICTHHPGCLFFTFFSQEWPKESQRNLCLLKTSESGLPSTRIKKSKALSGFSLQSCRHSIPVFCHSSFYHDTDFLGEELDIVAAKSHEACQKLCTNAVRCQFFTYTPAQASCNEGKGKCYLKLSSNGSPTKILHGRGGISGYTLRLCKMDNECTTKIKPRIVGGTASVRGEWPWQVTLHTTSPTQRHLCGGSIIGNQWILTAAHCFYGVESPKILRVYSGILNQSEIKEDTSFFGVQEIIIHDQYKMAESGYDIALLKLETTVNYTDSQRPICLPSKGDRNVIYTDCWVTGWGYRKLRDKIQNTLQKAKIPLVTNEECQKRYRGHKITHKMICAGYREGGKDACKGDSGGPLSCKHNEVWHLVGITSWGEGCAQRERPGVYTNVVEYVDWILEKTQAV

What was measured:
[1] = biological target: human coagulation factor XI (human) (UniProt P03951); assay: biochemical assays (ELISA)
[2] = biological target: human coagulation factor XI (human) (UniProt P03951); assay: ELISA on coated human FXI
[3] = biological target: human coagulation factor XI (human) (UniProt P03951); assay: ELISA on coated human FXI, anti-h-Fc-POD detection
[4] = biological target: human coagulation factor XI (human) (UniProt P03951); assay: competitive ELISA on coated FXI, competitor biotinylated 1A6

Measured: binding

B1: humanized and germlined anti-FXI antibody TPP-3577 (antibody, human IgG1, kappa, V domains shown)
VH: EVTLRESGPALVKPTQTLTLTCTFSGFSLSTSGMCVGWIRQPPGKALEWLAHIDWDDDKYYSTSLKSRLTISKDTSKNQVVLTMTNMDPVDTATYYCARIRSSVYAHYYGMDVWGQGTTVTVSS
VL: DIVMTQSPDSLAVSLGERATISCKSSQSVLYSGDNYLNWYQQKPGQPPKLLIYAASTLESGIPDRFSGSGSGTDFTLTISSLQAEDVAVYYCQQYNGDPWTFGGGTKVEIKR
binds: all assays above
